Experimental data published in PMC11655647.

Biological target: T1, Flag-tagged mouse GALNTL5, full length (mouse) (UniProt Q9D4M9)
T1 sequence (chain, N-glycans at the N-glycosylation sites N68, N140, N353 and N390): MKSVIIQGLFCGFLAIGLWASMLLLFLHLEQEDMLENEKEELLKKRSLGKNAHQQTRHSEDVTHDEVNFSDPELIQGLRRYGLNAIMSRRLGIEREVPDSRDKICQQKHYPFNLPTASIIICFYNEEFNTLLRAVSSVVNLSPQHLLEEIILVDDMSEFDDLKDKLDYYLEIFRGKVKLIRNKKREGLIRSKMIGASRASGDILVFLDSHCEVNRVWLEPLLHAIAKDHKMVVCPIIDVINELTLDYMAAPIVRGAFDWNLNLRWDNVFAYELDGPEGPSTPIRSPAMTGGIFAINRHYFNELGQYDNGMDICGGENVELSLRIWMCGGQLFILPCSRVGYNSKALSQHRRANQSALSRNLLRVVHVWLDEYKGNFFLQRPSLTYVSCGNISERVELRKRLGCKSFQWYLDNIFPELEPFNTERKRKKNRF
Experiment: co-IP; GC-2spd(ts) cells transiently transfected with Flag-tagged mouse GALNTL5 cDNAs, cultured overnight; IP of lysates with the DDDDK-tagged Protein Magnetic purification Kit (anti-Flag), western blot for the chaperones

- binding: no binding
Substance: HSP70 (mouse, endogenous)

These are yes or no findings as the source states them, for the method shown. In cells and extracts the contact can be indirect. Tags and fused reporters may be left off the sequences shown.
